# Measured values from the supplement of paper PMC9135407.
# Several values for one entry are separate records, joined by “and”; a condition that tells them apart may be missing. Identical values can stand only once. Counter-ions that a name gives are not always drawn. ± gives the standard deviation of the averaged measurements. The list shows a part of the results. Part of the spread comes from offsets between plates or batches.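 Culture-activated primary human stellate myofibroblasts, where regained lipid droplets signal inactivation. Value: share of Hoechst-counted cells above a per-plate Bodipy cutoff, in duplicate wells, with DMSO negative and nortriptyline positive controls on each plate. Hits: a control-normalized score above the plate's top-tenth-percentile nortriptyline wells, or one of a plate's three best wells. Final well concentrations are not given.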
# Tested on: primary human hepatic stellate cells (donor 1)
# Experiment: percent Bodipy-positive cells; higher = more lipid droplet accumulation
# Conditions: 48 h
# [1] = library stock concentration: 1 mM
# [2] = library stock concentration: 10 mM
# [3] = library stock concentration: 3.33 mM
smiles,measurement,setting,value
CCCCCCCCCCCCCCCCOC[C@H](COP(=O)([O-])OCC[N+](C)(C)C)OC(C)=O,percent Bodipy-positive cells,[1],12.8% and 11%
CCCC(C)C1(CC)C(=O)NC(=S)NC1=O (centres undefined) [Thiopental sodium],percent Bodipy-positive cells,library stock concentration: 7.6 mM,6.9 ± 2.2%
COc1cc([C@@H]2c3cc4c(cc3[C@H](O)[C@H]3COC(=O)[C@@H]23)OCO4)cc(OC)c1OC [Picropodophyllotoxin],percent Bodipy-positive cells,[2],67.9 ± 2.3%
CC(N)Cc1c[nH]c2ccc(OCc3cccs3)cc12 (centres undefined),percent Bodipy-positive cells,[1],36.8 ± 6.9%
C1=C2CCCN[C@H]2[C@@H]2C[C@H]1[C@H]1CCCCN1C2 [Aloperine],percent Bodipy-positive cells,[3],15.9 ± 5%
same,percent Bodipy-positive cells,[2],33.4 ± 4.4%
CN1CCC(c2c[nH]c3ccc(O)cc23)CC1,percent Bodipy-positive cells,[3],9.29 ± 1.7%
CC(C)[C@@]1(NC(=O)[C@@H]2C[C@@H]3c4cccc5[nH]cc(c45)C[C@H]3N(C)C2)O[C@@]2(O)[C@@H]3CCCN3C(=O)[C@H](Cc3ccccc3)N2C1=O [Dihydroergocristine mesylate],percent Bodipy-positive cells,,49.1 ± 1.9%
same,percent Bodipy-positive cells,[2],46 ± 9.7%
COc1ccc2[nH]c3c(c2c1)CCN=C3C [Methoxy-6-harmalan],percent Bodipy-positive cells,,36.4 ± 4.4%
O=C1C=C2C=C[C@@H]3C[C@@]2(O1)[C@H]1CCCCN31 [Securinine],percent Bodipy-positive cells,,15.7 ± 0.89%
same,percent Bodipy-positive cells,[2],36.9 ± 7.9%
CC(=O)C1=C(O)[C@@H]2[C@H]3c4c[nH]c5cccc(c45)C[C@H]3C(C)(C)N2C1=O [Cyclopiazonic acid],percent Bodipy-positive cells,library stock concentration: 14.9 mM,18.9 ± 1.9%
CC(=O)C1=C(O)[C@@H]2[C@H]3c4c[nH]c5cccc(c45)C[C@H]3C(C)(C)N2C1=O [Cyclopiazonic Acid],percent Bodipy-positive cells,[2],9.24 ± 0.9%
CC(C)=CC1C(C(=O)OCc2cccc(Oc3ccccc3)c2)C1(C)C (centres undefined) [Phenothrin],percent Bodipy-positive cells,[2],40.7 ± 8.2%
NNCc1ccccc1 [Benzylhydrazine hydrochloride],percent Bodipy-positive cells,[2],16.8 ± 3.3%
NC(=O)c1ccc(OCC(O)CN2CC=C(c3ccc(F)cc3)CC2)cc1 (centres undefined),percent Bodipy-positive cells,[2],35.3 ± 0.64%
CCOC(=O)CN1C(=O)CC(C[C@@H](O)C2C[C@@H](C)C[C@H](C)C2=O)CC1=O (some centres undefined) [Cycloheximide-N-ethylethanoate],percent Bodipy-positive cells,library stock concentration: 13.6 mM,12.5 ± 3.6%
C[N+](C)(C)CC#CCN1CCCC1=O [Oxotremorine M],percent Bodipy-positive cells,[2],7.66 ± 1%
C[N+](C)(C)CC#CCN1CCCC1=O [Oxotremorine methiodide],percent Bodipy-positive cells,[2],31.6 ± 7.4%
Cc1ncc2n1-c1ccc(Cl)cc1C(c1ccccc1F)=NC2,percent Bodipy-positive cells,[2],11.3 ± 0.93%
CC(C)(C)OC(=O)NC1[C@H]2CNC[C@@H]12 (some centres undefined),percent Bodipy-positive cells,[2],37.7 ± 1.1%
COc1ccc(CNC(=O)/C=C/c2ccc3[nH]cc(CCN(C)C)c3c2)cc1,percent Bodipy-positive cells,[2],56 ± 3.3%
NC(=O)C[S@@+]([O-])C(c1ccccc1)c1ccccc1,percent Bodipy-positive cells,[2],26.7 ± 5.9%
C[CH2][Hg][S]c1ccccc1C(=O)[O-].[Na+] [Thimerosal],percent Bodipy-positive cells,library stock concentration: 4.9 mM,72.2 ± 13%
same,percent Bodipy-positive cells,[2],99.03 ± 0.62%
NC(=O)CN1CC(O)CC1=O (centres undefined) [Oxiracetam],percent Bodipy-positive cells,[3],9.74 ± 2%
same,percent Bodipy-positive cells,[2],30.1% and 53.9%
COc1ccn(C)c(=O)c1C#N [Ricinine],percent Bodipy-positive cells,,10 ± 4.4%
CCCCC/C=C\C/C=C\C/C=C\C/C=C\CCC(C)C(=O)NCCF (centres undefined),percent Bodipy-positive cells,[1],14.6 ± 2.6%
CC1=CCCC2C1(C)CCC(C)C2(C)CC/C(C)=C/Cn1c[n+](C)c2c(N)ncnc21 (centres undefined) [Agelasine (stereochemistry of diterpene unknown)],percent Bodipy-positive cells,[2],59.8 ± 15%
"Cl.Clc1ccc(N2CCN(Cc3c[nH]c4ncccc34)CC2)cc1 [L-745,870 hydrochloride]",percent Bodipy-positive cells,[2],99.26 ± 0.27%
O=C(CCCN1CCC2(CC1)C(=O)NCN2c1ccccc1)c1ccc(F)cc1 [Spiperone],percent Bodipy-positive cells,,33.5 ± 0.94%
same,percent Bodipy-positive cells,library stock concentration: 5.1 mM,33.37 ± 0.22%
same,percent Bodipy-positive cells,[2],25.5 ± 1.3%
CC(C)C[C@H]1C(=O)N2CCC[C@H]2[C@]2(O)O[C@](NC(=O)[C@@H]3C=C4c5cccc6[nH]cc(c56)C[C@H]4N(C)C3)(C(C)C)C(=O)N12 [Ergocryptine-alpha],percent Bodipy-positive cells,,6.61 ± 2.1%
CC(N)C(O)c1ccccc1 (centres undefined) [Phenylpropanolamine],percent Bodipy-positive cells,library stock concentration: 13.2 mM,5.75 ± 0.61%
CC(N)C(O)c1ccccc1 (centres undefined) [Phenylpropanolamine hydrochloride],percent Bodipy-positive cells,,26.3 ± 4.3%
same,percent Bodipy-positive cells,library stock concentration: 10.7 mM,4.37 ± 0.29%
COC(=O)N1CCN(C(=O)Cc2ccc(Cl)c(Cl)c2)C(CN2CCCC2)C1.O=C(O)/C=C/C(=O)O (centres undefined),percent Bodipy-positive cells,[2],88.8 ± 6.5%
COC[C@H]1OC(=O)c2coc3c2[C@@]1(C)C1=C(C3=O)C2CCC(=O)[C@@]2(C)C[C@H]1OC(C)=O (some centres undefined) [Wortmannin from Penicillium funiculosum],percent Bodipy-positive cells,[2],30.4 ± 6.2%
CCCCC1(C2CCCC2)Cc2cc(OCCCC(=O)O)c(Cl)c(Cl)c2C1=O (centres undefined),percent Bodipy-positive cells,[2],15.2 ± 3.7%
CC(C)Oc1cccnc1N(C)C1CCN(Cc2ccccc2)CC1,percent Bodipy-positive cells,[2],41.7 ± 13%
CCN1C[C@]2(COC)CC[C@H](OC)[C@]34C5C[C@@H]6[C@@H](OC)C[C@@]7(OCO[C@@]7(C13)[C@@H](O)C24)C5[C@H]6OC (some centres undefined) [Delcorine],percent Bodipy-positive cells,,6.74 ± 4.9%
Fc1ccc(C(OCCN2CCN(C/C=C/c3ccccc3)CC2)c2ccc(F)cc2)cc1,percent Bodipy-positive cells,[2],44.4 ± 11%
O=[N+]([O-])O[C@H]1CO[C@H]2[C@@H]1OC[C@H]2O[N+](=O)[O-] [Isosorbide dinitrate],percent Bodipy-positive cells,,9.52 ± 4%
same,percent Bodipy-positive cells,[2],16 ± 7.6%
CCCCCCCCCCCCCCCCOCC(COP(=O)([O-])OCC[N+](C)(C)C)OC(C)=O (stereo not drawn) [Enantio-PAF C16],percent Bodipy-positive cells,[1],4.55 ± 1.6%
CCN1C[C@]2(COC)CC[C@H](O)[C@]34C1[C@@](O)([C@@H](OC)[C@H]23)[C@@]1(O)C[C@H](OC)[C@H]2C[C@@H]4[C@@H]1[C@H]2OC [Delsoline],percent Bodipy-positive cells,,7.314 ± 0.026%
CC[C@@H](C)C(=O)O[C@H]1[C@H](O)[C@H]2[C@@H](CN3C[C@@H](C)CC[C@H]3[C@@]2(C)O)[C@@H]2C[C@]34O[C@]5(O)[C@@H](OC(=O)[C@@](C)(O)CC)CC[C@@]3(C)[C@@H]5[C@@H](OC(C)=O)[C@@H](OC(C)=O)[C@H]4[C@@]21O [Protoveratrine a],percent Bodipy-positive cells,[2],21.2 ± 3%
CC[C@@H](C)C(=O)O[C@H]1[C@H](O)[C@H]2[C@@H](CN3C[C@@H](C)CC[C@H]3[C@@]2(C)O)[C@@H]2C[C@]34O[C@]5(O)[C@@H](OC(=O)[C@@](C)(O)CC)CC[C@@]3(C)[C@@H]5[C@@H](OC(C)=O)[C@@H](OC(C)=O)[C@H]4[C@@]21O [Protoveratrine A],percent Bodipy-positive cells,,18.8 ± 7.1%
O=c1cccc2n1C[C@@H]1CNC[C@H]2C1 [(-)-Cytisine],percent Bodipy-positive cells,[2],10.3 ± 2.9%
O=c1cccc2n1C[C@@H]1CNC[C@H]2C1 [Cytisine (-)],percent Bodipy-positive cells,,36.4 ± 14%
O=c1cccc2n1C[C@@H]1CNC[C@H]2C1 [Cytisine],percent Bodipy-positive cells,[3],8.51 ± 3.8%
